Reference: PubChem BioAssay AID1508597 (Cure First, 2020)
In all, the deposit lists about 2,100 reagents; below is a random part of them. 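Calls flag viability under 80% in either arm, not effects specific to rucaparib; the reference for percent is not stated.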 Not given: the 100% reference.

- Assay: 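Survival screen with siRNA in ovarian cancer cells derived from patients, with or without rucaparib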 (primary screen)
- System: human ovarian carcinoma lines grown from tumours: OCI-P5x (papillary serous) and OCI-C5x (clear cell)
- Reagents: siRNA pool against human genes, 1.25 pmol siRNA per well
- Timing: 72 h or 96 h, depending on the cell culture
- Treatment: rucaparib 20 µM (about IC30) or vehicle, present until read-out
- Measured: 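ATP luminescence measured at 72 or 96 h according to the culture, then normalised and expressed as percent viability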
- Direction: viability, normalised: higher = more viable cells remaining
- Hit rule: 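Active when normalised viability falls below 80 percent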
- Meaning of the calls: active = viability under 80%; inactive = viability 80% or more

With MED21 (GeneID 9412) [SID405526996], rucaparib or vehicle Rucaparib, cell line OCI-C5x (clear cell), technical replicate 1, how do the results read?
viability, normalised (%): 51.2; call: active

For MED21 (GeneID 9412) [SID405526996], rucaparib or vehicle Rucaparib, cell line OCI-C5x (clear cell), technical replicate 2, what was measured?
viability, normalised (%): 41.7; call: active

What did the screen give for MED21 (GeneID 9412) [SID405526996], rucaparib or vehicle Rucaparib, cell line OCI-C5x (clear cell), technical replicate 3?
viability, normalised (%): 51.1; call: active

How did the screen score MED21 (GeneID 9412) [SID405526996], rucaparib or vehicle Rucaparib, cell line OCI-P5x (serous), technical replicate 1?
viability, normalised (%): 74.8; call: active

For MED21 (GeneID 9412) [SID405526996], rucaparib or vehicle Rucaparib, cell line OCI-P5x (serous), technical replicate 2, what does the deposit list?
viability, normalised (%): 64.6; call: active

For MED21 (GeneID 9412) [SID405526996], rucaparib or vehicle Rucaparib, cell line OCI-P5x (serous), technical replicate 3, how do the results read?
viability, normalised (%): 78.6; call: active

With MED21 (GeneID 9412) [SID405526996], rucaparib or vehicle Vehicle, cell line OCI-C5x (clear cell), technical replicate 1, how do the results read?
viability, normalised (%): 54.4; call: active

What did the screen give for MED21 (GeneID 9412) [SID405526996], rucaparib or vehicle Vehicle, cell line OCI-C5x (clear cell), technical replicate 2?
viability, normalised (%): 49.1; call: active

With MED21 (GeneID 9412) [SID405526996], rucaparib or vehicle Vehicle, cell line OCI-C5x (clear cell), technical replicate 3, what was measured?
viability, normalised (%): 54.3; call: active

What is on record for MED21 (GeneID 9412) [SID405526996], rucaparib or vehicle Vehicle, cell line OCI-P5x (serous), technical replicate 1?
viability, normalised (%): 76.6; call: active

With MED21 (GeneID 9412) [SID405526996], rucaparib or vehicle Vehicle, cell line OCI-P5x (serous), technical replicate 2, what does the deposit list?
viability, normalised (%): 71.2; call: active

What is on record for MED21 (GeneID 9412) [SID405526996], rucaparib or vehicle Vehicle, cell line OCI-P5x (serous), technical replicate 3?
viability, normalised (%): 106; call: inactive

What is on record for PSKH2 (GeneID 85481) [SID405528560], rucaparib or vehicle Rucaparib, cell line OCI-C5x (clear cell), technical replicate 1?
viability, normalised (%): 41.2; call: active

For PSKH2 (GeneID 85481) [SID405528560], rucaparib or vehicle Rucaparib, cell line OCI-C5x (clear cell), technical replicate 2, what was measured?
viability, normalised (%): 54.6; call: active

For PSKH2 (GeneID 85481) [SID405528560], rucaparib or vehicle Rucaparib, cell line OCI-C5x (clear cell), technical replicate 3, what does the deposit list?
viability, normalised (%): 34.8; call: active

Which result is listed for PSKH2 (GeneID 85481) [SID405528560], rucaparib or vehicle Rucaparib, cell line OCI-P5x (serous), technical replicate 1?
viability, normalised (%): 91.4; call: inactive

With PSKH2 (GeneID 85481) [SID405528560], rucaparib or vehicle Rucaparib, cell line OCI-P5x (serous), technical replicate 2, what does the deposit list?
viability, normalised (%): 82.3; call: inactive

Which result is listed for PSKH2 (GeneID 85481) [SID405528560], rucaparib or vehicle Rucaparib, cell line OCI-P5x (serous), technical replicate 3?
viability, normalised (%): 46.7; call: active

What did the screen give for PSKH2 (GeneID 85481) [SID405528560], rucaparib or vehicle Vehicle, cell line OCI-C5x (clear cell), technical replicate 1?
viability, normalised (%): 58.8; call: active

What is on record for PSKH2 (GeneID 85481) [SID405528560], rucaparib or vehicle Vehicle, cell line OCI-C5x (clear cell), technical replicate 2?
viability, normalised (%): 57.3; call: active

How did the screen score PSKH2 (GeneID 85481) [SID405528560], rucaparib or vehicle Vehicle, cell line OCI-C5x (clear cell), technical replicate 3?
viability, normalised (%): 63.3; call: active

Which result is listed for PSKH2 (GeneID 85481) [SID405528560], rucaparib or vehicle Vehicle, cell line OCI-P5x (serous), technical replicate 1?
viability, normalised (%): 88.8; call: inactive

For PSKH2 (GeneID 85481) [SID405528560], rucaparib or vehicle Vehicle, cell line OCI-P5x (serous), technical replicate 2, what was measured?
viability, normalised (%): 81.7; call: inactive

For PSKH2 (GeneID 85481) [SID405528560], rucaparib or vehicle Vehicle, cell line OCI-P5x (serous), technical replicate 3, what does the deposit list?
viability, normalised (%): 86.7; call: inactive

Part of the list above in another layout.
target gene,PubChem SID,rucaparib or vehicle,cell line,technical replicate,"viability, normalised (%)",call
MED21 (GeneID 9412),SID405526996,Vehicle,OCI-P5x (serous),1,76.6,active
MED21 (GeneID 9412),SID405526996,Vehicle,OCI-P5x (serous),2,71.2,active
